Test results published in paper PMC7819943, “Rice protein-binding microarrays: a tool to detect cis-acting elements near promoter regions in rice”.
The other results are listed elsewhere or left out.

Each sequence was assayed against T1, OsSMF1 (Oryza sativa, UniProt Q6ZLB0 1-436) (assay: protein-binding microarray (RPBM); PBS, 2% BSA, 51.3 ng/ul salmon testes DNA, 50 uM zinc acetate, 200 nM TF, 25 C, 1 h; high values mean tight binding). Details: protein: recombinant; tags: N-terminal polyhistidine and DsRed monomer fusion (pET32a); chain copies: 2; label: CyDye5-dUTP incorporated in the synthesized complementary strand; 3' TTTTT single-stranded linker to array surface; dsDNA, one strand shown.
T1 sequence: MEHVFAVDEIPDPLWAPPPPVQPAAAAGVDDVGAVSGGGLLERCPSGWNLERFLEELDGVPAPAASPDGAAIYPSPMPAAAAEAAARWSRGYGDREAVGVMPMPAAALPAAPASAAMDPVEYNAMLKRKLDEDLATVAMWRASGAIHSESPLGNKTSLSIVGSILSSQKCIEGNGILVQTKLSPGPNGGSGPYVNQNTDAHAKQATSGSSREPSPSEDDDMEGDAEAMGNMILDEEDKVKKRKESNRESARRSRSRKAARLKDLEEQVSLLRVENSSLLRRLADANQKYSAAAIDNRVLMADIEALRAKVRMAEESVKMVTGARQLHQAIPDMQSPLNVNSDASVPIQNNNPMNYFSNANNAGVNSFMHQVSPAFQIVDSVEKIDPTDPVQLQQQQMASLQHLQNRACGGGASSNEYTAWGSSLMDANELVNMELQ
Summary of the method: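 The binding signal is fluorescence intensity per feature, in arbitrary units, read on an Axon 4000B scanner. Polyhistidine- and DsRed-tagged transcription factors (N-terminal fusions) from E. coli BL21-CodonPlus were purified on Ni–NTA and applied at 200 nM for 1 h at 25 °C to a double-stranded, BSA-blocked custom Agilent array in buffer with 50 µM zinc acetate.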

Sequence | binding signal
GACAATTATACTTTATGACACAAAATTGAATCCACCTCATCGGAGTCACCTAGTGCAG | 3410 fluorescence intensity (a.u.)
TAACTAAGACCCTCCACGCCTGTTAGTCTGTATGTCATTTCGGAGTCACCTAGTGCAG | 3450 fluorescence intensity (a.u.)
GAGGCGTGTGGCGTGTGACGTGTGGATTCCCCTCTCCCCGCGGAGTCACCTAGTGCAG | 9410 fluorescence intensity (a.u.)
CAAGGGGAATACAATTATGTGGATTGGTGCTTAGTGTGGTCGGAGTCACCTAGTGCAG | 3260 fluorescence intensity (a.u.)
GATGAGGCGTCCGCGTCCTCTTGTCATCCGGGTACGACTGCGGAGTCACCTAGTGCAG | 3850 fluorescence intensity (a.u.)
CACTGCTTTCACTGGAGACCAAAACTGGCTCTCTTTCACACGGAGTCACCTAGTGCAG | 5220 fluorescence intensity (a.u.)
TAGTGGAATGTGACACATACTGATACTACGAATCTAAACACGGAGTCACCTAGTGCAG | 3150 fluorescence intensity (a.u.)
CAGCCCAGCTCACCACCCTGTCAGCTCGTTCTTCCTCCTCCGGAGTCACCTAGTGCAG | 4070 fluorescence intensity (a.u.)
TGAGGGTGTGGGACGACACAGATCGTAACTGGATTGATCGCGGAGTCACCTAGTGCAG | 3830 fluorescence intensity (a.u.)
TGGTAACATATACCTAGCTGATGATGGCTACCATTGGAGGCGGAGTCACCTAGTGCAG | 3420 fluorescence intensity (a.u.)
GGAGAGGGGAAGTGGTGACGGTCAGTGGTGGATCCATGCACGGAGTCACCTAGTGCAG | 3270 fluorescence intensity (a.u.)
CCGAGGAAACAATTATTGGTGACGTAGCTAAATCTTAGGTCGGAGTCACCTAGTGCAG | 6430 fluorescence intensity (a.u.)
CCATCGGGAGGAGCAAAGCAAACGTGGCAACAACGCTCGTCGGAGTCACCTAGTGCAG | 4840 fluorescence intensity (a.u.)
GGTGTGTTTTCTTGCATGACGGGTGTGTTTTCTCCTTAAACGGAGTCACCTAGTGCAG | 5060 fluorescence intensity (a.u.)
TTTCTCTAATTTATTTGCACCACGTAGCGACTTAGGATAGCGGAGTCACCTAGTGCAG | 3980 fluorescence intensity (a.u.)
GGGCACGTGGAGAAACATTTCTTTCTAATCCAGCTCAACTCGGAGTCACCTAGTGCAG | 3560 fluorescence intensity (a.u.)
CAAAGAGCGATTTTGCCGACGTGGCATACAGCCATTGAACCGGAGTCACCTAGTGCAG | 19700 fluorescence intensity (a.u.)
CCACAAACAGGCCCTTACCCTCAACCGGCGAGAGGTGCCTCGGAGTCACCTAGTGCAG | 21900 fluorescence intensity (a.u.)
GGCCCTCGTAGAAGCGGCGGCATCCACGCACACACCACGCCGGAGTCACCTAGTGCAG | 4570 fluorescence intensity (a.u.)
GGTTTCACGCTCACGCGCGCCACGTTTGTCCCCACCCCACCGGAGTCACCTAGTGCAG | 6020 fluorescence intensity (a.u.)
TAGCACGTGGTGATGATCACCCAACTGTTCTTCCTGTGTGCGGAGTCACCTAGTGCAG | 4330 fluorescence intensity (a.u.)

Sequence | binding signal
CTTGTCGCATCTGAACGTGTCGAGTCACACCTGTGTGTTACGGAGTCACCTAGTGCAG | 8330 fluorescence intensity (a.u.)
CTAGTCGCTGACTGACGCTGCCCGCCGTGTGGCCGTGCATCGGAGTCACCTAGTGCAG | 3700 fluorescence intensity (a.u.)
TATAAATTAATATGTAGTATATCACTTCATAAGTTTAAATCGGAGTCACCTAGTGCAG | 39300 fluorescence intensity (a.u.)
TCCTCGCTGAGTCCGATCCTGACCGTCCGATCGTGCAACGCGGAGTCACCTAGTGCAG | 3620 fluorescence intensity (a.u.)
ATAATCCATCTGTTCAAGTAAGGTATCTAAGGAAAGCCAACGGAGTCACCTAGTGCAG | 5060 fluorescence intensity (a.u.)
CACCCTTTCCAAATGATGTTGACAAGACTGGATGACACGGCGGAGTCACCTAGTGCAG | 3730 fluorescence intensity (a.u.)
AATTAAATGGCTACATATACGTGGAGGCGAATGGTGGTTTCGGAGTCACCTAGTGCAG | 5670 fluorescence intensity (a.u.)
ACCCTCTATCGGGTGCAAATACGCGGAACACCAAGGACCTCGGAGTCACCTAGTGCAG | 3400 fluorescence intensity (a.u.)
TCCGTCGCCCTTCCAGCCGCGTTGTCTTGTTCCGATGGTGCGGAGTCACCTAGTGCAG | 4200 fluorescence intensity (a.u.)
TTTCGAAAATTAGGTTTAGCTGAGTTGCCAACTGCTTGACCGGAGTCACCTAGTGCAG | 3480 fluorescence intensity (a.u.)
CCAAAACGACCGTCATGCGTCTGTGTGCCACGTCGGCTTGCGGAGTCACCTAGTGCAG | 23000 fluorescence intensity (a.u.)
CCATCTCGGCCCAGCCCAATAGCCCATGTCATAGTCATTCCGGAGTCACCTAGTGCAG | 4080 fluorescence intensity (a.u.)
CCTTTTATCCGCTCTACGGACGCAGTCCACGTCAGCCGACCGGAGTCACCTAGTGCAG | 39200 fluorescence intensity (a.u.)
ATAATCTTCAGAGATCTCCTTGCCTGAAGTGTCTTATGTTCGGAGTCACCTAGTGCAG | 42500 fluorescence intensity (a.u.)
GATCACCCCGACGCATTCTGCTTTCGTCTCCAGAGGTTCGCGGAGTCACCTAGTGCAG | 3340 fluorescence intensity (a.u.)
ATTATTAGCTTGGTCACTTGTTTACTAGCTGGAATGCTGGCGGAGTCACCTAGTGCAG | 3300 fluorescence intensity (a.u.)
GGCGGAGGAGGAAAGGGAGAGTTGTGCTGGTGGTAGGAGGCGGAGTCACCTAGTGCAG | 3560 fluorescence intensity (a.u.)
AATAAATCTCACGGACTTCCATATCTACTCCCGGTTTCTGCGGAGTCACCTAGTGCAG | 3590 fluorescence intensity (a.u.)
AGCACTTGTGGAAATGTGACGTATTATCTGTATTTTACTACGGAGTCACCTAGTGCAG | 6090 fluorescence intensity (a.u.)
CTGCCCTAGTGTGTACTAGTAGTTACTTCATCCGTTTCAGCGGAGTCACCTAGTGCAG | 3180 fluorescence intensity (a.u.)
TACAGTAATCCACATGTGCTAATGACGGCTTAATTAGGTTCGGAGTCACCTAGTGCAG | 4110 fluorescence intensity (a.u.)

Copied from the list.
CACCCTTTCCAAATGATGTTGACAAGACTGGATGACACGGCGGAGTCACCTAGTGCAG – binding signal: 3730 fluorescence intensity (a.u.)
CCAAAACGACCGTCATGCGTCTGTGTGCCACGTCGGCTTGCGGAGTCACCTAGTGCAG – binding signal: 23000 fluorescence intensity (a.u.)
CCTTTTATCCGCTCTACGGACGCAGTCCACGTCAGCCGACCGGAGTCACCTAGTGCAG – binding signal: 39200 fluorescence intensity (a.u.)
